From PMC8648115
No constants are given. Whether binding was seen depends on the method and setting. Binding seen in cells or lysates may run through a third protein. Some binding calls cover weakened binding; strength is not graded here.

Sequences of proteins named here, by UniProt entry; tags and fusion partners are left off.
UniProt O76216: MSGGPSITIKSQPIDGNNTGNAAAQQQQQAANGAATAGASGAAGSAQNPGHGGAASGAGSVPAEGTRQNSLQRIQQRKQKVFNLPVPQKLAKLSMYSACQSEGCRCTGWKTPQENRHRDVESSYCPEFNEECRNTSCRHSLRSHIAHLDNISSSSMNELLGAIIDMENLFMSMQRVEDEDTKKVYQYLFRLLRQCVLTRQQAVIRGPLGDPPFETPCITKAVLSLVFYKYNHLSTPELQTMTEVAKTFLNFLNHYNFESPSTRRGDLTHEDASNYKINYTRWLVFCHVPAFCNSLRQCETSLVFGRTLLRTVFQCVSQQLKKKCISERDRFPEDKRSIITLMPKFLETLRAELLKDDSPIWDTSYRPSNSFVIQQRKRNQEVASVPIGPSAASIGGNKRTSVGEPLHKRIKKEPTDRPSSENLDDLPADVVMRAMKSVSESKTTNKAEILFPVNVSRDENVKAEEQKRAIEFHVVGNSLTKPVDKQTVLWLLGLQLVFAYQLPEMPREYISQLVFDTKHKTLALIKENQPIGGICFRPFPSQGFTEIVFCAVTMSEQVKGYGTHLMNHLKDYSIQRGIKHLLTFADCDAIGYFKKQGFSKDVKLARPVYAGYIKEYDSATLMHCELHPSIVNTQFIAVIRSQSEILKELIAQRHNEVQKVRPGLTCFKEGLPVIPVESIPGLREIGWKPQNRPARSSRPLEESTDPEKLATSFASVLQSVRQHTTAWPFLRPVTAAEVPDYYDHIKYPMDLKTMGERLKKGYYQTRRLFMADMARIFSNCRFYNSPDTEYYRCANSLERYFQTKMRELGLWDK

Biological target: Gcn5 (Drosophila (endogenous in S2 cells)) (UniProt O76216)
Experiment: co-IP; rabbit anti-full-length Gcn5 on Protein A Dynabeads precipitates endogenous Gcn5 (SAGA); 1.5 mg nuclear extract of S2 cells transiently transfected with TRF2-S-Flag-HA or TRF2-L-Flag-HA, diluted to 0.15 M NaCl, overnight; washes with 150 mM NaCl, 0.2% Triton X-100; Western blot

B1: TATA Binding Protein (TBP) (protein, UniProt P20227 1-353)
chain: MDQMLSPNFSIPSIGTPLHQMEADQQIVANPVYHPPAVSQPDSLMPAPGSSSVQHQQQQQQSDASGGSGLFGHEPSLPLAHKQMQSYQPSASYQQQQQQQQLQSQAPGGGGSTPQSMMQPQTPQSMMAHMMPMSERSVGGSGAGGGGDALSNIHQTMGPSTPMTPATPGSADPGIVPQLQNIVSTVNLCCKLDLKKIALHARNAEYNPKRFAAVIMRIREPRTTALIFSSGKMVCTGAKSEDDSRLAARKYARIIQKLGFPAKFLDFKIQNMVGSCDVKFPIRLEGLVLTHCNFSSYEPELFPGLIYRMVRPRIVLLIFVSGKVVLTGAKVRQEIYDAFDKIFPILKKFKKQS
binding: binds
